# Data published in the supplement of paper PMC12889115.
# Some of the results follow. Values are raw readings; no control value is given beside them.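 First-pass screen: polymyxin B was added at a level that permeabilizes the Salmonella outer membrane while sparing the inner membrane. DMSO wells, with and without polymyxin B, defined maximum growth. Because plates differed from one another, each plate's data were ranked separately and the compounds with the lowest OD600 were carried forward as hits.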
# Test system: Salmonella enterica serovar Typhimurium SL1344
# Experiment: bacterial growth OD600 after 18 h with compound and polymyxin B; higher = more bacterial growth (less inhibition)
# Conditions: 50 µM, Mueller-Hinton broth
Compound,bacterial growth OD600 (polymyxin B 1 µg/mL),bacterial growth OD600 (polymyxin B 0.75 µg/mL)
O=C1NCCN1CCNc1ccc(-c2nc(C3CC3)no2)cn1,1.02,
CC(C)S(=O)(=O)N1CCC2(CCCN(Cc3cccc(F)c3F)C2=O)C1 (stereo unspecified),0.873,
COc1ccc(-c2cnnc(NCc3c[nH]nc3-c3ccc(F)cc3)n2)cc1OC,,0.008
COc1cccc(CC(C2CCN(C(=O)[C@H]3C[C@@H]4C=C[C@H]3C4)CC2)N(C)C(=O)CCSC)c1 (stereo partly specified),,1.01
CCCc1ccc2oc(C(=O)N3CCCC(COC)C3)c(C)c2c1 (stereo unspecified),-0.001,
Cc1occc1C(=O)NC1CC(=O)N(CCc2ccccc2)C1 (stereo unspecified),0.988,
Cc1cccc(-c2cnc(C)nc2C2CCCN(C(=O)c3ccccc3F)C2)c1 (stereo unspecified),,0.825
CCC(=O)NCC1Cc2cccc(-c3ncccc3C)c2O1 (stereo unspecified),,0.808
CCC(C)n1cc(C(=O)NCc2cn3cc(C)sc3n2)c(=O)c(C(=O)N2CCCCCC2)c1 (stereo unspecified),,0.874
O[C@@H]1CN(Cc2cnn(-c3cccc(Cl)c3)c2)CC[C@H]1N1CCOCC1,,0.793
CN(C(=O)c1ccsc1)C(Cc1ccccc1F)C1CCN(C(=O)CC2CCCC2)CC1 (stereo unspecified),,0.663
COC(=O)c1c(S(=O)(=O)Nc2cccc(F)c2)sc2c1CCN(CC=C(C)C)C2,,0.714
Cc1c(CN2CCOc3ccc(C4=Cc5ccccc5CC4)cc3C2)c(=O)n(-c2ccccc2)n1C,,0.001
COCC(=O)Nc1cc(C(=O)N[C@@H]2CCCC[C@H]2c2ccccc2)cc2nc(-c3cccnc3)n(C)c12,,0.854
CCCS(=O)(=O)N1CCCC1C(=O)Nc1ccccc1-c1ccc(OC)cc1 (stereo unspecified),,0.752
CCC(C)NC(=O)c1cc(NC(C)=O)c2c(c1)nc(-c1ccccc1F)n2CC (stereo unspecified),,0.982

Compound,bacterial growth OD600 (polymyxin B 1 µg/mL),bacterial growth OD600 (polymyxin B 0.75 µg/mL)
CC(C)Cc1cn[nH]c1C1CCCN(Cc2cccc3c2OCO3)C1 (stereo unspecified),,0.788
Cc1cccc(-c2cnc(C)nc2C2CCCN(C(=O)c3ccccc3C(F)(F)F)C2)c1 (stereo unspecified),,0.819
CN(C)C1CCN(C(=O)c2csc3nc(-c4ccccc4Cl)cn23)C1 (stereo unspecified),0.821,
COCCC(=O)NCc1cccnc1N1CCCC(O)C1 (stereo unspecified),,0.784
COc1ccc(CCN2CC(C(=O)NCCCN3CCOCC3)CCC2=O)cc1 (stereo unspecified),0.958,
O=C(CCOc1ccccc1)Nc1ccnn1C1CCN(C(=O)c2ccncc2)CC1,0.946,
CCN(Cc1nccn1C)C(=O)c1ccc(N2CCCC(COC)C2)nc1 (stereo unspecified),1.12,
COc1ccc(CC(=O)N2CCc3c(cnc(C)c3CNC(=O)c3ccc4c(c3)OCO4)C2)cc1,,0.788
CCOC(=O)C1(C/C=C/c2ccccc2)CCCN(Cc2cnn(C)c2C)C1 (stereo unspecified),0.791,
O[C@@H]1CN(C/C(Cl)=C/c2ccccc2)CC[C@H]1N1CCN(c2ccccn2)CC1,0.82,
COc1ccc(-c2nn(-c3ccccc3C)cc2CN2CCN(CCO)CC2)cc1F,0.911,
O=C(Nc1ccc(Oc2ccccc2F)cc1)C1CCCCN1C(=O)Cn1cncn1 (stereo unspecified),,0.789
O=C(Nc1cccc(-c2cccc(F)c2)c1)C1CCN(CC2CC2)CC1,0.676,
Cc1ccccc1CCC1CCCN(C(=O)CCc2c(C)noc2C)C1 (stereo unspecified),0.015,
COc1ccc2ccc(OCc3nc(C(=O)N4CCCCCC4)co3)cc2c1,0.673,
